The match of structure and compound is tentative.
Assays:
[1] = target: EGFR T790M/L858R (NCI-H1975 cells) (Homo sapiens, UniProt P00533, L858R/T790M); assay: EGFR (L858R) degradation analysis, Total EGFR (L858R) HTRF, NCI-H1975 cells; settings: read-out: H1975 EGFR DC50, 6 hours
Source text: (§1) NCI-H1975 (harboring EGFR heterozygous T790M/L858R mutations) and NCI-H3255 (harboring EGFR heterozygous L858R mutation) were purchased from ATCC and NCI, respectively. NCI-H1975+CS (harboring EGFR heterozygous T/790M/L858R/C797S mutations) was generated using CRISPR technology to introduce the additional C797S mutation by Horizon Discovery. RPMI 1640 no-phenol red medium and fetal bovine serum (FBS) were purchased from Gibco (Grand Island, NY, USA). Cell culture flasks and 384-well microplates were acquired from VWR (Radnor, PA, USA). Total EGFR (L858R) HTRF assay kits were purchased from Cisbio (Bedford, MA, USA).
(§2) Degradation of EGFR protein containing L858R mutation was determined based on quantification of FRET signal using Total EGFR (L858R) HTRF assay kit. Test compounds were added to the 384-well plate from a top concentration of 10 μM with 11 points, half log titration in duplicates. NCI-H1975, NCI-H1975+CS or NCI-H3255 cells were added into 384-well plates at a cell density of 10000, 10000 or 1000 cells per well, respectively. The plates were kept at 37° C. with 5% CO2 for 6 hours. Cells treated in the absence of the test compound were the negative control. Positive control was set by wells containing all reagents but no cells. FRET signal was acquired on EnVision™ Multilabel Reader (PerkinElmer, Santa Clara, CA, USA).

Chains of the proteins cited; added tags and fusions are not shown. Residues count along the entry.
UniProt P00533, 25-1210 L858R limits assumed: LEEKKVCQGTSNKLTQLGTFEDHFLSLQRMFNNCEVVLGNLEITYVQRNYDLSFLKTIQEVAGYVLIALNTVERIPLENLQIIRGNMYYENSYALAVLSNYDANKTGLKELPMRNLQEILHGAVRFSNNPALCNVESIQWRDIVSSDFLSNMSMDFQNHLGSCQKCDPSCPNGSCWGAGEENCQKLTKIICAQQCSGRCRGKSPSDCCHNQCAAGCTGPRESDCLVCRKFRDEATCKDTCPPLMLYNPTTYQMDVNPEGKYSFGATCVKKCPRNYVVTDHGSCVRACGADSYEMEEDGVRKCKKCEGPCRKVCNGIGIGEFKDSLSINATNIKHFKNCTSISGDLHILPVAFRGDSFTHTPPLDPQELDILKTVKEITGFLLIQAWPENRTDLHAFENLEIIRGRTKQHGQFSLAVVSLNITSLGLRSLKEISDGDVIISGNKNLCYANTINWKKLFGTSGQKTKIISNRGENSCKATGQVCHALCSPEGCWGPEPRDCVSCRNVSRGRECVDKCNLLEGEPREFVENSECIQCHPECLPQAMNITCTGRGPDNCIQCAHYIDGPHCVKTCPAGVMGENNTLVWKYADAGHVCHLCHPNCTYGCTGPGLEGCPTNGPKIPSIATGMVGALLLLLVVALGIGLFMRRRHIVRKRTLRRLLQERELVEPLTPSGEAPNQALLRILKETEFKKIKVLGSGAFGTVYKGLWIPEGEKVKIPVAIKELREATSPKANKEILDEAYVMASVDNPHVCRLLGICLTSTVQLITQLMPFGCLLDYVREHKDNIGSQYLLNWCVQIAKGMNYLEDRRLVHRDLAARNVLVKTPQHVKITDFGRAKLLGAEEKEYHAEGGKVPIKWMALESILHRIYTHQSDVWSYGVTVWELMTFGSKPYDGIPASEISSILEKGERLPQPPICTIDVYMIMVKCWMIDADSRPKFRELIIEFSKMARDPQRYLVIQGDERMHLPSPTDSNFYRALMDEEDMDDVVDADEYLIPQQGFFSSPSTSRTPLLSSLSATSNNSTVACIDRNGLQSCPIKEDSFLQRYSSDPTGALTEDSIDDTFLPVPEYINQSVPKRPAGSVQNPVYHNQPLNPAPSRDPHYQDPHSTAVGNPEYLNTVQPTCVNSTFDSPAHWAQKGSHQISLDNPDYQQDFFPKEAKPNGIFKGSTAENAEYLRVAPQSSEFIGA
UniProt P00533, 25-1210 T790M/L858R limits assumed: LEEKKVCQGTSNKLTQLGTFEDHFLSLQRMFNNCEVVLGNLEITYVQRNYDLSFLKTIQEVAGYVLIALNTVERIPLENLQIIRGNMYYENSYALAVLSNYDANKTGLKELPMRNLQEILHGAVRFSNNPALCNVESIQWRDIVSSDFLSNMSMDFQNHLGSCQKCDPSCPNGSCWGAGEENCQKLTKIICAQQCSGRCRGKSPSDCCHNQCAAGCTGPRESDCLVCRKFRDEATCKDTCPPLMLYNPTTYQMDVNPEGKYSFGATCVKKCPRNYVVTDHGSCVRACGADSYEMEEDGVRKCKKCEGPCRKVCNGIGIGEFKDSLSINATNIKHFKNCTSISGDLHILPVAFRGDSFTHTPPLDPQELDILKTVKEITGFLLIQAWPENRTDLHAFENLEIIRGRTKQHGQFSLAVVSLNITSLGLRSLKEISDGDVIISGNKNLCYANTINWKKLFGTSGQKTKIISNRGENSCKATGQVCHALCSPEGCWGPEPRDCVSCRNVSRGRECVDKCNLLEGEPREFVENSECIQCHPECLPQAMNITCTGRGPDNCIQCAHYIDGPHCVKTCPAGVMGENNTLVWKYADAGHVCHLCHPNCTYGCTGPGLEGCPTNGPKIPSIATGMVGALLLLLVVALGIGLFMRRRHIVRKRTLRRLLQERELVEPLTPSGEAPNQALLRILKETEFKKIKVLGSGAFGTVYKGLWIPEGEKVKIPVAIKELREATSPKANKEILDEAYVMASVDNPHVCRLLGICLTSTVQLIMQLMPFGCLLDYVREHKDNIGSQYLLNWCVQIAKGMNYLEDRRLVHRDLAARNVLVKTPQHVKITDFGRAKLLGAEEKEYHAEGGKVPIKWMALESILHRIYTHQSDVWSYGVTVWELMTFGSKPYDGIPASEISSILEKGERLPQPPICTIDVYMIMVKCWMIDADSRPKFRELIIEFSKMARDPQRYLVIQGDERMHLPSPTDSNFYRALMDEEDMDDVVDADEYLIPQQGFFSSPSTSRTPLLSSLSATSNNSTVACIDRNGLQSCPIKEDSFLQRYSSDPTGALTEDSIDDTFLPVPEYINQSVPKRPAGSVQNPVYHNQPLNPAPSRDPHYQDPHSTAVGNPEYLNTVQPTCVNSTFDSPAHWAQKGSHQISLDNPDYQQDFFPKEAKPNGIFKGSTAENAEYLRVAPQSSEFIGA
UniProt P00533, 25-1210 T790M/C797S/L858R limits assumed: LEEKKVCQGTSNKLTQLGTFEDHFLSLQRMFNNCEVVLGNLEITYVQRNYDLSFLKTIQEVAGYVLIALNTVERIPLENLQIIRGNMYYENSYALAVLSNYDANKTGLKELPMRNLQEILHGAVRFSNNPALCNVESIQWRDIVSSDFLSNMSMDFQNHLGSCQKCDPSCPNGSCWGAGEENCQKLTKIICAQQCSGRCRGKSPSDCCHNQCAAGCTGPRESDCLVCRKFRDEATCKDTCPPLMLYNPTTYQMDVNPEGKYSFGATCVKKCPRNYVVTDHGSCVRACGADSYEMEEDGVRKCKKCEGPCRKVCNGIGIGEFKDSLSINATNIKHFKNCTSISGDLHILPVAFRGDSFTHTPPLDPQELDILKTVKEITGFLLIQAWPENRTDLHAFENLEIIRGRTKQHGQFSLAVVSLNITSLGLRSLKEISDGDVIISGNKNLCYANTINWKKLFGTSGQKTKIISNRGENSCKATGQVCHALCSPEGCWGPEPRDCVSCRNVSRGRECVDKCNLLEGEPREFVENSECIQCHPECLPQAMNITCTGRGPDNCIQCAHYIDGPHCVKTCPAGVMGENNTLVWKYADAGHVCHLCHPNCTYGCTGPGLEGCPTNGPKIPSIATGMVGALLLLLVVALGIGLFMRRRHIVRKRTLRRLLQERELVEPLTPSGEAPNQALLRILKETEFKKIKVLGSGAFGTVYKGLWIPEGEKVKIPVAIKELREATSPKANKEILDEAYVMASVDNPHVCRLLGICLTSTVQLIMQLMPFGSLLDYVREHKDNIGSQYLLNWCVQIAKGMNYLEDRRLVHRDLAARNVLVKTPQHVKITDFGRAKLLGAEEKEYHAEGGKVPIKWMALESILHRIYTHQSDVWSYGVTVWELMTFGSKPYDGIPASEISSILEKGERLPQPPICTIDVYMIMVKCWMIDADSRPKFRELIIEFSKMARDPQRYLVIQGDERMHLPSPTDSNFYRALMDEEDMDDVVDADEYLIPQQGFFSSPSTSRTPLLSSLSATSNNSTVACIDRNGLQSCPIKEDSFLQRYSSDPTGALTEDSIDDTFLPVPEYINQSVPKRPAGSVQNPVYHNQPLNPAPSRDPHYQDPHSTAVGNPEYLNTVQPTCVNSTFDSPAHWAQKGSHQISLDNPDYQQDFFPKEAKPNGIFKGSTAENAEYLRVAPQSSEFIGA

[2] = target: EGFR T790M/L858R/C797S (NCI-H1975+CS cells) (Homo sapiens, UniProt P00533, C797S/L858R/T790M); assay: EGFR (L858R) degradation analysis, Total EGFR (L858R) HTRF, NCI-H1975+CS cells; settings: read-out: H1975 C797S clone EGFR DC50, 6 hours
Source text: as §1, §2

[3] = target: EGFR L858R (NCI-H3255 cells) (Homo sapiens, UniProt P00533, L858R); assay: EGFR (L858R) degradation analysis, Total EGFR (L858R) HTRF, NCI-H3255 cells; settings: read-out: H3255 EGFR DC50, 6 hours
Source text: as §1, §2

- DC50 [1]: 30 nM
- DC50 [2]: 24 nM
- DC50 [3]: 8 nM
SMILES: N#Cc1cc(NC2CCC(=O)NC2=O)ccc1C1CCN(CC(=O)N2CCN(c3ccc(-c4cc(F)c5c(c4)C(=O)N(C(C(=O)Nc4nccs4)c4ncn6c4CCC6)C5)cc3)CC2)CC1 (stereo not drawn)
